Primary screen of a compound library

Data taken from ChEMBL document CHEMBL3988442, “University of Dundee, Small-Polar-MMV Screening Library” (2021).

The filed quantity is “Percent Effect” (%).
The record does not define 0% and 100%; most values in the screen are far below 50% and negative numbers occur (in some assays of this library far below -100).
The compounds are a random part of those screened.
Two or more numbers in one place are separate tests of the same structure; such repeats can differ widely.

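Viability assay of Plasmodium falciparum sporozoites; the read-out is not stated. The concentration is filed as 10 mM, unlikely as a test dose, so the dose is not known. The record gives no direction; compounds that gave an IC50 in retests scored well above the rest, so higher reads as lower viability. Strong results were mostly tested again. About 34,000 compounds were tested under these conditions; 0.84% (about 280) showed 50% or more at least once.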

CCNC(=O)C1CCN(c2nccc(C3CCCC3)n2)C1 (configuration not stated) gave -15.63%. Cc1ncsc1CNCC(C)c1nc2ccccc2o1 (configuration not stated) read 0.1304%. With Cc1nccc(CNC(=O)CCc2c(C)nc3cc(O)nn3c2C)n1 the screen gave 8.653%. O=C(O)C(F)(F)F.[H][C@@]12CCCO[C@]1([H])[C@H](NC(=O)C1CC1)CN(Cc1ccccc1)C2 read -7.035%. CC(NC(=O)N1CCCN(Cc2cccs2)CC1)c1cccnc1 (configuration not stated) read 4.946%. With Cc1c[nH]c(C2CCCN(Cc3ccccc3C(=O)O)C2)n1.O=CO (configuration not stated) the screen gave 7.561%. For O=C1NC(c2cccnc2)=NC12CCN(CCCc1ccccc1)CC2 the result was -10.92%.

O=C(O)C(F)(F)F.O=C(O)C(F)(F)F.[H][C@@]12COC[C@@H](CC(=O)NCc3cccnc3)[C@]1([H])CN(CC1CC1)C2 gave 4.024%. Cc1nc(CN(C)C2CCN(Cc3ccc4c(c3)CCC4)C2)no1 (configuration not stated) gave 4.32%. For Cc1ccc(F)c(S(=O)(=O)NCCc2nnc[nH]2)c1 the result was -10.05%. Cc1ccc(F)c(C(=O)Nc2cccc(CCN3CCCC3)c2)c1 read -16.21% and -31.34%. Result for CC(=O)Nc1nc(C(=O)N2CCCC2c2noc(C3CC3)n2)cs1 (configuration not stated) was 10.55%. For N#Cc1ccc(N2CCC3(CCC(=O)N3Cc3ccncc3)CC2)nc1.O=C(O)C(F)(F)F.O=C(O)C(F)(F)F the result was -18.57%. CCCN(C(=O)COC)c1nc2c(s1)CCc1c-2cnn1C gave -6.832%.

Result for Cc1ccc2c(c1)C(NCc1ccccn1)CC2 (configuration not stated) was -4.501%. Cc1cc(=O)n2nc(-c3cccs3)nc2n1CC(=O)NC(C)C gave -2.089%. O=C(O)C(F)(F)F.[H][C@]12CN(Cc3ccc(F)cc3)C[C@@]1([H])S(=O)(=O)CC[C@@H]2C(=O)NCC(C)C gave 1.667%. O=C(O)C(F)(F)F.[H][C@@]12CCN(Cc3ccco3)[C@]1([H])CC[C@H](COCC(=O)N(C)C)O2 gave 10.62% and 12.99%. With C[C@]1(O)CCN(Cc2c[nH]cn2)C[C@@H]1Oc1cccc(F)c1 the screen gave -10.54%. Nc1nc2c(c3c1C(=O)NC3=O)CCCC2 gave -19.96% and -21.28%. With CC1(Cc2ccc(Cl)cc2)Cc2cc(CCC(=O)O)ccc2O1 (configuration not stated) the screen gave 2.914%.

CCC(C)NC(=O)N1CCCn2cnc(CO)c2C1 (configuration not stated) gave -7.016%. CCc1nc(CN2CCCC(NCc3nc(C)c(C)o3)C2)no1 (configuration not stated) read -5.884%. Result for CCc1cc(O)nc(C2CCCN2C(=O)c2cc(CC)on2)n1 (configuration not stated) was 0.3331%. O=S(=O)(CC1CCCCC1)NCc1ccnc(O)c1 read -1.224%. Result for Cc1ccoc1C(=O)N1CCc2ccc(=O)n(CCN(C)C)c2CC1.O=C(O)C(F)(F)F was 3.246%. With Cc1ccc(CN2CC(O)CN(C(=O)C3CC3)CC2=O)cc1 (configuration not stated) the screen gave -44.96%. O=C(Cc1cccc(F)c1)NCCNCc1ccc2c(c1)CCO2 read 2.126%.

For O=C1OCCN1Cc1ncnn1Cc1c(F)cccc1Cl the result was -25.38%. COc1ccc2c(ccn2CCC(=O)Nc2n[nH]c(C(C)C)n2)c1 gave -1.007%. O=C(c1ccncc1)N1CCc2c(COCC3CC3)cncc2C1 read 0.5051%. For CN1CCN(Cc2cn3c(n2)CN(C2CCOCC2)CC3)CC1.O=C(O)C(F)(F)F.O=C(O)C(F)(F)F.O=C(O)C(F)(F)F the result was 10.57%. Result for N#CC1(C(=O)Nc2ccc(OC(F)F)cc2)CCCC1 was -14.78%. With COCc1nn(CC2CC2)c2c1CN(Cc1ccco1)CC2.O=C(O)C(F)(F)F the screen gave 1.711%. With O=C(c1ccccn1)N1CCc2c(nc(N3CCCC3)[nH]c2=O)C1 the screen gave -9.123%.

Cc1ccc(C)c(CS(=O)(=O)CC(=O)NCCCOC(C)C)c1 read 3.375%. Result for Cc1cc(C(=O)N2CCC3(CCCN(CC4CC4)C3=O)C2)c(C)n1C (configuration not stated) was -6.08%. Cc1csc2ncc(-c3ccnc(N4CCC[C@H](C(N)=O)C4)n3)c(=O)n12 gave 8.552%. Result for CCS(=O)(=O)CCNCc1cc(O)c2cc(C)cc(C)c2n1 was 2.478% and 0.5436%. CC(NC(=O)NCc1ccc(Cl)s1)c1ccccn1 (configuration not stated) gave -10.26%. For CCS(=O)(=O)N1CCc2c(COCc3ccncc3)cncc2C1 the result was 11.59%. For c1cc(CN2CCC[C@@H](Cn3nnc(-c4cnccn4)n3)C2)ccn1 the result was 9.496%.

COCc1nn(C)c2c1CN(Cc1cnn(C)c1)CC2.O=C(O)C(F)(F)F read 0%. For CC(C)n1nc(O)c2c1NC(=O)CSC2c1cnn(C)c1 (configuration not stated) the result was -7.902%. CNS(=O)(=O)c1ccc(CNC(=O)Nc2cn[nH]c2)cc1 read 7.586%. O=C(CN1CCC2(CC1)NC(=O)c1cc(Br)ccc1N2)NC1CC1 gave 2.67%. With CNC(=O)c1ccc(C2CN(C(=O)c3cnn(C)c3)CCO2)nc1 (configuration not stated) the screen gave -87.54%.

Repeated from the top, 3 entries:

- CCNC(=O)C1CCN(c2nccc(C3CCCC3)n2)C1 (configuration not stated) | -15.63%
- Cc1ncsc1CNCC(C)c1nc2ccccc2o1 (configuration not stated) | 0.1304%
- Cc1nccc(CNC(=O)CCc2c(C)nc3cc(O)nn3c2C)n1 | 8.653%